From publication PMC4429956
Results are given in words; binding and its absence hold for the method and conditions named. Binding seen in cells or lysates may run through a third protein. Some binding calls cover weakened binding; strength is not graded here.

Protein sequences, listed by entry. Tags and fused reporters are not part of them.
UniProt P10085: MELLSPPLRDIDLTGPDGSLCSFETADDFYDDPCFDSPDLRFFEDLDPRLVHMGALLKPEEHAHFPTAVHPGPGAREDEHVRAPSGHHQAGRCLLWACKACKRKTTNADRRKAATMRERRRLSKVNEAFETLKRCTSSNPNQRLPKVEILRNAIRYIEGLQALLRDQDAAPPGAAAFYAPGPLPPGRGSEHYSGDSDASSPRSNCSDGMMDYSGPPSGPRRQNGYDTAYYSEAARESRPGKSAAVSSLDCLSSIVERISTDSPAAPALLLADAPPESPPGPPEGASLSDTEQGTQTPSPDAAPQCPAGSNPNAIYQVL

Target: MyoD (UniProt P10085)
Assay: co-IP; full-length TAF3 and KK-TAF3 with MyoD (Figure S7C)

binding: binds
B1: full-length WT-TAF3 (protein, UniProt Q5HZG4 1-932)
chain: MCESYSRSLLRVSVAQICQALGWDSVQLSACHLLTDVLQRYLQQLGRGCHRYSELYGRTDPILDDVGEAFQLMGVNLHELEDYIHNIEPVTFPHQIPSFPVSKNNVLQFPQPGSKDAEERKDYIPDYLPPIVSSQEEEEEEQVPTDGGTSAEAMQVPLEEDDEMEEEEVINDENFLGKRPLDSPEVEEMPSMKRPRLLSTKGDSLDVVLLEAREPLSSINPQKTPPVLSPVRVQDRADLAPPSPQPPMLAPFAKSQLPIAKPLETKSFTPKTKTKASSPGQKTKSPKAALSPARLGSPIRSPKTIPKEKKSPGRSKSPKSPKSPKIVAHVPQTPVRPETPNRTPSAMVVEKTVKETIPVMKPTQTPPEVVKLNIEMQPKKPVVTDKTIDDSIDAVIARACAEREPDPFEFSSGSESEGDTFTSPKRISGSECATPKASTSSNNFTKSLATPLPLSSGTSSSDNSWTMDASIDEVVRKAKLGAPSNMPPTFPYISSPSISPPTPEPLHKGYEEKAKLPSSVDVKKKLKKELKTKLKKKEKQRDRERERERNKERSKEKDKMREREKEKEAGKELKYPWRELMKDEDSDPYKFKIKEFEDIDAAKVRLKDGIVRREREKHKDKKKDRERSKREKDKRERERLKEKNREDKIKAPPTQLVLPPKEMALPLFSPSAVRVPAMLPAFSPMLPEKLFEEKEKPKEKERKKDKKEKKKKKEKEKEKEKKEREREKERREREKREKEKEKHKHEKIKVEPVIPAPSPVIPRLTLRVGAGQDKIVISKVVPAPEAKPAPSLNRPKTPPPAPVPIPVRVSPTPLQPPLLTQAAVCPALMPSPAPALSGIGSAKAPVRSVVTETVSTYVIRDEWGNQIWICPGCNKPDDGSPMIGCDDCDDWYHWPCVGIMAAPPEEMQWFCPKCANKIKKDKKHKKRKHRAH
